Measurements reported in PubChem BioAssay AID1053208 (Peter MacCallum Cancer Centre, 2014)
Screen: 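Synthetic lethal interactions between gene loss and doxorubicin in osteosarcoma cells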 (primary screen). Cell system: mouse osteosarcoma cells, early-passage culture from an engineered mouse model of fibroblastic bone tumour. Reagent: siRNA pool against mouse genes, 40 nM. Duration: about 120 h (48 h before drug, then 72 h with drug). Treatment: doxorubicin 100 nM for 72 h, roughly 30-40% inhibitory dose. Detection: 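Luminescent ATP signal taken as viability with or without 100 nM doxorubicin for 72 h; mean of two wells set against non-targeting siRNA and turned into robust z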. Direction: viability z-score with doxorubicin and doxorubicin viability vs non-targeting: higher = more viable cells under doxorubicin; viability z-score without drug: higher = more viable cells with knock-down alone; z-score of drug to no-drug ratio: higher = less drug sensitisation by knock-down. Hit rule: 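Called active if knock-down leaves viability unchanged without drug (z within -2 to 2) but lowers it with doxorubicin (z at or under -2)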.
Here is one part, drawn at random, of about 17,000 reagents. In the full data, 788 (4.7%) got an active call. 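Calls rest on z-score classes alone; an extra cut-off of viability at most 70% of control was not applied to them.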 The numbers tell different reagents against one gene apart. Some reagents were tested in more than one well and are listed for each.

target,pool no.,combined z-score class,viability z-score with doxorubicin,viability z-score without drug,z-score of drug to no-drug ratio,doxorubicin viability vs non-targeting,outcome
Arv1 (GeneID 68865),1,low cell count with doxorubicin only,-2.14,0.67,-2.47,0.75,active
Plekhg6 (GeneID 213522),1,no change with or without drug,1.57,-0.51,2.14,1.08,inactive
Apon (GeneID 28194),1,no change with or without drug,0.67,0.51,0.45,1,inactive
Ifna14 (GeneID 404549),1,no change with or without drug,-1.01,-0.17,-0.9,0.85,inactive
Nppb (GeneID 18158),1,no change with or without drug,-1.57,-0.51,-1.24,0.8,inactive
Sod3 (GeneID 20657),1,no change with or without drug,1.12,1.18,0.45,1.04,inactive
Ddit3 (GeneID 13198),1,no change with or without drug,0.67,0.51,0.45,1,inactive
Or5p69 (GeneID 258732),1,no change with or without drug,-1.57,0.17,-1.69,0.8,inactive
Ilf2 (GeneID 67781),1,no change with or without drug,0,-0.84,0.67,0.94,inactive
Cdin1 (GeneID 399568),1,no change with or without drug,-0.22,-1.85,1.35,0.92,inactive
Dnah1 (GeneID 110084),1,no change with or without drug,0.22,-0.51,0.67,0.96,inactive
Dnah1 (GeneID 110084),2,no change with or without drug,-0.22,0.67,-0.56,0.92,inactive
Ebf2 (GeneID 13592),1,no change with or without drug,-0.79,0.51,-1.01,0.87,inactive
Abhd8 (GeneID 64296),1,no change with or without drug,-1.91,-1.35,-1.01,0.77,inactive
Abl1 (GeneID 11350),1,no change with or without drug,0.34,-0.17,0.56,0.97,inactive
Them5 (GeneID 66198),1,no change with or without drug,1.12,-1.18,2.25,1.04,inactive
Slc35f1 (GeneID 215085),1,low cell count with doxorubicin only,-2.02,-0.17,-1.91,0.76,active
Canx (GeneID 12330),1,no change with or without drug,0.9,1.18,0.22,1.02,inactive
Rint1 (GeneID 72772),1,no change with or without drug,0.11,-1.18,1.12,0.95,inactive
Shd (GeneID 20420),1,no change with or without drug,0.56,-0.84,1.35,0.99,inactive
Foxd1 (GeneID 15229),1,no change with or without drug,0.79,0.51,0.56,1.01,inactive
Nudt2 (GeneID 66401),1,no change with or without drug,-0.11,-0.17,0.11,0.93,inactive
Pigc (GeneID 67292),1,no change with or without drug,-1.57,0.34,-1.8,0.8,inactive
Dmrtc2 (GeneID 71241),1,no change with or without drug,-0.22,0.84,-0.67,0.92,inactive
Pnlip (GeneID 69060),1,no change with or without drug,0.22,-0.17,0.45,0.96,inactive
Ces2e (GeneID 234673),1,no change with or without drug,-0.22,0.84,-0.67,0.92,inactive
Entpd1 (GeneID 12495),1,no change with or without drug,-1.57,-0.67,-1.12,0.8,inactive
Smad9 (GeneID 55994),1,no change with or without drug,0.45,-0.17,0.67,0.98,inactive
Dhrs11 (GeneID 192970),1,no change with or without drug,-0.22,-0.84,0.45,0.92,inactive
Mapkapk2 (GeneID 17164),1,no change with or without drug,1.12,1.52,0.22,1.04,inactive
Irx3os (GeneID 319388),1,no change with or without drug,-0.45,1.52,-1.24,0.9,inactive
Retsat (GeneID 67442),1,no change with or without drug,1.57,0.84,1.12,1.08,inactive
Bcr (GeneID 110279),1,no change with or without drug,0.11,-0.34,0.45,0.95,inactive
H1f2 (GeneID 50708),1,no change with or without drug,1.69,0.51,1.46,1.09,inactive
Grin2c (GeneID 14813),1,no change with or without drug,-0.67,-1.85,0.79,0.88,inactive
Fhip1b (GeneID 74349),1,no change with or without drug,0.56,1.35,-0.22,0.99,inactive
Rnf103 (GeneID 22644),1,no change with or without drug,0.45,0.51,0.22,0.98,inactive
Lrrc4b (GeneID 272381),1,no change with or without drug,0.22,-0.84,1.01,0.96,inactive
Ngf (GeneID 18049),1,no change with or without drug,1.24,-0.51,1.8,1.05,inactive
Avpr1a (GeneID 54140),1,no change with or without drug,-1.12,-0.84,-0.56,0.84,inactive
Avpr1a (GeneID 54140),1,no change with or without drug,0.45,0.51,0.22,0.98,inactive
Or4f7 (GeneID 258397),1,no change with or without drug,-0.67,-0.17,-0.45,0.88,inactive
Mims1 (GeneID 108654),1,no change with or without drug,-0.45,0.84,-0.9,0.9,inactive
Neurog2 (GeneID 11924),1,no change with or without drug,0.79,1.35,0,1.01,inactive
Nrbp1 (GeneID 192292),1,low cell count without drug only,-1.12,-2.36,0.67,0.84,inactive
Arvcf (GeneID 11877),1,high cell count with doxorubicin only,3.93,1.85,2.7,1.29,inactive
Svep1 (GeneID 64817),1,no change with or without drug,-1.35,-0.51,-1.01,0.82,inactive
Mrgpra7 (GeneID 404236),1,no change with or without drug,0.67,0,0.79,1,inactive
Gprasp3 (GeneID 338363),1,no change with or without drug,0.67,0.84,0.22,1,inactive
Prdx6b (GeneID 320769),1,no change with or without drug,0.22,0.51,0,0.96,inactive
